These results are taken from patent US20210309735A1 (published 2021).

T1: human IL-17A (human, UniProt Q16552 20-155, limits assumed)
T1 construct: Bought from R&D Systems; also called IL-17 antigen (human IL17A)
T1 sequence (looked up): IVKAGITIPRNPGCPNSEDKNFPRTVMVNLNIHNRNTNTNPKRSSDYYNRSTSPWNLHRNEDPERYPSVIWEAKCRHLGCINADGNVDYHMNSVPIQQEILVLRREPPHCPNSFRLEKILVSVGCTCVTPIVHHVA

T2: human IL-17A (human) (UniProt Q16552)
T2 sequence (looked up): T1 sequence (looked up)

B1: PP10759 (antibody, human IgG4 S228P, kappa, V domains shown)
VH: EVQLVESGGGLVQPGGSLKLSCVASGFTFSTYGMSWVRQTPDKRLELVAIINHNGGSTFYPDSVKGRFTVSRDNAKNTLHLQMSSLKSEDTAMYYCARDPRHDGYFFDYWGQGTTLTVSS
VL: DIQMTQSSPSFSVSLGDRVTITCKASEDIYDRLAWYQQKPGNAPRLLISGATSLETGIPSRFSGSRSGKDYTLDINSLQTEDAATYYCQQYWSVPWTFGGGTKLEIKR
notes: expressed in HEK293; also called chimeric antibody PP10759; chimeric parental antibody
B2: PP10761 (antibody, human IgG4 S228P, kappa, V domains shown)
VH: EVQLVESGGGLVQPGGSLRLSCAASGFTFSTYGMSWVRQAPGKGLELVSIINHNGGSTFYPDSVKGRFTISRDNSKNTLYLQMNSLRAEDTAVYYCARDPRHDGYFFDYWGQGTLVTVSS
VL: DIQMTQSPSSLSASVGDRVTITCQASEDIYDRLAWYQQKPGKAPKLLISGATSLETGVPSRFSGSGSGKDYTFTISSLQPEDIATYYCQQYWSVPWTFGGGTKVEIKR
notes: Humanized, human IgG4/kappa; also called VH6665/VL6666
B3: PP10764 (antibody, human IgG4 S228P, kappa, V domains shown)
VH: B2 VH with S49A, I70V
VL: B2 VL
notes: Humanized, human IgG4/kappa; also called VH6666/VL6666
B4: PP10762 (antibody, human IgG4 S228P, kappa, V domains shown)
VH: B2 VH
VL: B2 VL with Q24R, K45N, I48V, T56S, F73L, I83F
notes: Humanized, human IgG4/kappa; also called VH6665/VL6667
B5: PP10766 (antibody, human IgG4 S228P, kappa, V domains shown)
VH: B2 VH with L11V, G16R, S49A
VL: B2 VL with K69T
notes: Humanized, human IgG4/kappa; also called VH6667/VL6665
B6: PP10767 (antibody, human IgG4 S228P, kappa, V domains shown)
VH: B2 VH with L11V, G16R, S49A
VL: B2 VL
notes: Humanized, human IgG4/kappa; also called VH6667/VL6666
B7: PP10768 (antibody, human IgG4 S228P, kappa, V domains shown)
VH: B2 VH with L11V, G16R, S49A
VL: B2 VL with Q24R, K45N, I48V, T56S, F73L, I83F
notes: Humanized, human IgG4/kappa; also called VH6667/VL6667
B8: PP10765 (antibody, human IgG4 S228P, kappa, V domains shown)
VH: B2 VH with S49A, I70V
VL: B2 VL with Q24R, K45N, I48V, T56S, F73L, I83F
notes: Humanized, human IgG4/kappa; also called VH6666/VL6667
B9: PP10763 (antibody, human IgG4 S228P, kappa, V domains shown)
VH: B2 VH with S49A, I70V
VL: B2 VL with K69T
notes: Humanized, human IgG4/kappa; also called VH6666/VL6665
B10: PP10760 (antibody, human IgG4 S228P, kappa, V domains shown)
VH: B2 VH
VL: B2 VL with K69T
notes: Humanized, human IgG4/kappa; also called VH6665/VL6665

Where a chain is given by its changes, count along the chain named. These are yes or no findings as the source states them, for the method shown. Some results given as binding are weak or reduced against the parent protein; the word gives no strength.

In the first assay the target is T1, human IL-17A. The experiment in a line: ELISA, human IL-17A coated. (In general: ELISA stands for enzyme-linked immunosorbent assay.)
B1: the binding entry was “binds”.

B2: the binding result was “binds”.

Turning to B3, the binding result is “binds”.

On to B4, for which the binding entry is recorded as “binds”.

Regarding B5, the binding entry is on record as “binds”.

For B6, the binding result is “binds”.

Take B7: the binding entry is listed as “binds”.

For the molecule B8, the binding entry is recorded as “binds”.

B9: the binding result is given as “binds”.

In another assay the target is T2, human IL-17A (human). In words: ELISA, human IL-17A coated.
B10: the binding result was “binds”.

The target in a further assay is T1, human IL-17A. In words: BLI (Octet). (BLI is a label-free optical method that tracks binding on a fibre tip over time.)
B1: the binding result was “binds”.

Regarding B2, the binding entry is reported as “binds”.

As to B3, the binding entry was “binds”.

For the molecule B4, the binding result is given as “binds”.

As for B5, the binding entry is given as “binds”.

In the case of B6, the binding entry is “binds”.

As for B7, the binding entry was “binds”.

Take B8: the binding result is “binds”.

Regarding B9, the binding entry is given as “binds”.

The target in another assay is T2, human IL-17A (human). In words: BLI (Octet).
In the case of B10, the binding result is given as “binds”.

Another assay addresses cynomolgus monkey IL17A (cynomolgus monkey). The experiment in a line: ELISA, monkey IL-17A coated.
As for B1, the binding result is listed as “binds”.

As for B2, the binding entry was “binds”.

As to B3, the binding entry is given as “binds”.

With B4, the binding result is reported as “binds”.

Take B5: the binding result is “binds”.

For the molecule B6, the binding result is listed as “binds”.

Regarding B7, the binding entry is “binds”.

For B10, the binding result is recorded as “binds”.

For the molecule B8, the binding entry was “binds”.

For B9, the binding entry is reported as “binds”.
